The target in the test is T1, Pst3 with C-terminal 3× Flag-tag (S. pombe, UniProt O74755 1-1154).
T1 construct: Pst3, Sin3 homolog of S. pombe, subunit of the SIN3L complex; PAH3, HID and HCR are resolved in the model; Endogenous protein; also called Pst3-Flag; Sin3 isoform Pst3; source: endogenous locus tagged, S. pombe; purified (ANTI-FLAG M2 resin, glycerol gradient); not shown: 3× Flag, C-terminal, kept
T1 sequence (looked up): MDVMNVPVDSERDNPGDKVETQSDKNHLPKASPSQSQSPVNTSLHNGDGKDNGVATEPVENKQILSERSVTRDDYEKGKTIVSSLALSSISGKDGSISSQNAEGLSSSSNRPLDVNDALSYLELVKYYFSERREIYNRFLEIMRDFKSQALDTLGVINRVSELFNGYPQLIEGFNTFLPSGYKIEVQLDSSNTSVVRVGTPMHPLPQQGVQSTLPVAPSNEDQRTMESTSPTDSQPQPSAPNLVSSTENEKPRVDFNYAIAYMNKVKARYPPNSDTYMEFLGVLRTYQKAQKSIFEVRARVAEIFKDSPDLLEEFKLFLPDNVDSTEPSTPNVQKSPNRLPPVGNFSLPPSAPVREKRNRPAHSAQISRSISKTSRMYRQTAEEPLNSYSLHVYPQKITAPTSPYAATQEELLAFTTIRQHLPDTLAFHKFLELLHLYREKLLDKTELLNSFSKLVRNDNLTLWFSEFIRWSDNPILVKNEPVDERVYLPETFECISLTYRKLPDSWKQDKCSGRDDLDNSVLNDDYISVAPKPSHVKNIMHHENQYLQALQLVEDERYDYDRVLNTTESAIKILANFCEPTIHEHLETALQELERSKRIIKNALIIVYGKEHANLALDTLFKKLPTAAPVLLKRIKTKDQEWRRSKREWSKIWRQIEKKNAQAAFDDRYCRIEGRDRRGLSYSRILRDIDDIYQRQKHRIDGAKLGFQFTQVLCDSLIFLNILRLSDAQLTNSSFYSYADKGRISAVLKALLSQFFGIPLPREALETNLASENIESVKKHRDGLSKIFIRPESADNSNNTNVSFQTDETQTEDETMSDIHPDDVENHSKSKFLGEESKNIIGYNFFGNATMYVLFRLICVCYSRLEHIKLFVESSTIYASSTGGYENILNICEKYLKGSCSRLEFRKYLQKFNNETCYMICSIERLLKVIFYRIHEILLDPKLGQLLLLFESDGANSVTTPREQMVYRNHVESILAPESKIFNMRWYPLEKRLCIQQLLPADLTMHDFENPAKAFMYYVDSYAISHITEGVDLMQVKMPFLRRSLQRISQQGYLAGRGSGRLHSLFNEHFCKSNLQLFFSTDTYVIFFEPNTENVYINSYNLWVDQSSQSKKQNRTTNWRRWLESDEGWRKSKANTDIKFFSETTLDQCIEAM
Nature of the test: affinity purification with mass spectrometry; Pst3-3×Flag as bait from S. pombe lysate (350 mM NaCl) on ANTI-FLAG M2 resin, FLAG peptide elution, glycerol gradient; SDS-PAGE bands analysed by LC-MS/MS.

These are yes or no findings as the source states them, for the method shown. In cells and extracts the contact can be indirect. A yes stands for co-enrichment or nearness to the bait. Other partners may have been found. Sequences can lack the tags named with a protein.

B1: Cti6 (protein, UniProt Q1MTR4 1-424)
chain: MPSNSTPANEEKEEESEKIQKSPVDTPHTPNGSVSDNEENETSSTGEVTRCVCGIVESDDEASDGGLYIQCDQCSVWQHGNCVGFADESEVPEVYYCEICHPEFHKVYQRGRGAKQSKYLGNGKPIEASQTEESSSTPPSPATKKSSKQRLTMNSRDAALDYEEYLAIAKEKSLIPRRSRGRTSSKSLSPPAPQDESQGTEINLKQKIEEENDEILEDSKESKDENEENKETSTTNVAETDAPEEETVDTVEEIADEEKHSVKEESGEASPQSSQQSTITSISTTTRSTRKAKREAAAEDKADLPAAVAPKPSKTRKVGGRRGKSSSNDNHRIPQLHPDGTFVETITKPKGLHSRITMTEMRRRVASMLEYIGHIQVEMAAQSAGNQSSTKSSKEGPEEEKETLRMVDNLTRDLLHWEQRFSRT
With B1, the binding entry was “binds”.

B2: Dep1 (protein, UniProt Q9P7M1 1-491)
chain: MTENLQSESIPHEILPKEPFDLPMNNLKSSPKNKDSEKRINNSIAESEQVVDSALSNPETNANEDIIAPQLPSQNSEIIEKNSPVNKLNSSTSLTTHQLASLPKLEVTDHDNVSEAETVVLNEDEEKETSLVGSVSVTEDLGDSSAIGRTILVNNSVEPQMENTANITIVSPSLKESDFESEEKATNDNNGLIETNHNSKLEESSEHEEEEDEESNIERTEDSDHQIPQRGGTLEAPRKGGPRSGVGSRKRKRATVSRKWSTNSESKIKRVALETSQEESDREIADRRSASEQAHEADDEKAIKRKEAFDALLNIETEFTFLRNRLYGKKLLKLNEHEEMIQNETHERFNACIDLITERRDDRVRLATENLMKQLGNIKNVMDYVTKQRKYQLLFDKRRIRQALLTKIATKCFQLLNKQKSVHDPTYITQKTMSYRQSALLQKQRIEYEAAVLCELNSFAGFPTAPIIETASFDDIRNDLLEMGCLSENQD
Take B2: the binding result is “binds”.

B3: Laf1 (protein, UniProt O13719 1-297)
chain: MKSSQTLVYSIPRNVEKDTCAAAIKAYQYLISPPPSPIPNDKVASTVDVPKCSTIPESPKDSIVEPKPTATPVAQLHSKVYDLYRDSPKIWLRRERQWLQRHSPAYRFSTPAAKRPRRQPSSFLDVHASNTRKRGSPDTPDSGHSTPHSKGDVHPGMPQHNTRFKQSSREFSSNTQAIDVANTPYELLPDYSPDMSVLDKRSHPRPLRSEWKGPPLDLSNDENRHLLHPAELQLAATLRLPCLVYLDNKRRIFAEWHNRRTQGLSFRKTDAQRASRVDVNKASRLWKAFHDEGFFDD
With B3, the binding result was “binds”.

B4: Png2 (protein, UniProt O74736 1-305)
chain: MGTSGIEIFAALNDFTDAIVSVPESVCGKFTSLKEIDAQVRDIRQNVIQEIGVVLKNEKNDELSGEERCERLQKTLKEILPYSDSKICLATDAMNNIKSCIDRLDAGFEYVELEIPQQLRLGYPDDRALMNYHSTVTPQTSERRRETRRHQNNQHSQQYSSQERSSSYNNFEDASSPQSSYHTPTKRRKNAVPRKSSSPPLSSTKHAPQSTERRPVRRSESRLKQTNGEPLVKHDTLDSSDISREGEQLYCYCQQVSYGQMIGCDNENCKREWFHLPCVGLVEPPKGIWYCKECEELAKSSESRQ
Take B4: the binding entry is “binds”.

B5: Laf2 (protein, UniProt O74443 1-272)
chain: MQILKDQENLNPDGGSFVLITPPLSPPKQKSLSYTNISRRHGMRACMKGIVYEVYKNQPKLWLQQELIWLRRKRIHPIPKARRNNHVGRWANRHSNVSSSSGSRGRSSVSSRDSSPSYSGALRSAERSISSSPSTIEARRRKSARGNGLNGAIDVANLPFEELPNFCPDMSVLDNRTHPRTLKAEWKGPPLDLSDDPYRDLLHPAELHLASTLRLPCLIYLDNKKRIFAEWHHRRQQGLTFRKTDAQRASRVDVNKASRLWKAFHEVGFFDD
In the case of B5, the binding result was “binds”.

B6: Sds3 (natural protein, S. pombe, UniProt Q9UTB6 1-267, looked up)
chain: MDVLSRVFDNEKEELDPLLNNPLTASEFRAKKAELEAELESIRNGTCKTLLDLADELRRSRDEELEIAERWRTFLVNRAQEEYEVEMKAAKEEYEYRCKTLKEMVLSHLNEKKRKIYEAKDMFDIGSESSTLLLHDASSQFIDRRKLRHRRNAGNQQNTQQLPSLNFFDDYLLFPTDETAVIPQSVKNAVRNSVNSVKPTSAEASLFSPLLSMANANPTNGRERDPRASERAERDREKAVEKGLSGATEEDIQSDLQLLKKELAKKK
notes: Sds3 of S. pombe, scaffold subunit of the SIN3L complex; Endogenous protein; source: endogenous, S. pombe; co-purified with Pst3-3×Flag (ANTI-FLAG M2 resin, glycerol gradient)
Consider B6, for which the binding result is “binds”.

These data come from article PMC10115800, “Two assembly modes for SIN3 histone deacetylase complexes” (Cell Discovery, 2023).
